Here are results for 69 compounds from PubChem BioAssay AID662 (National Center for Advancing Translational Sciences (NCATS), 2007).

“And” between values parts separate entries of the source, which are not always exact repeats. Equal values may be shown once. The list shows a part of the results. Further columns of the screen follow, without active or inactive calls. The list favours compounds with an active or inconclusive main result. Words in brackets tell the shape of the fitted curve; partial curves, single points and poor fits give uncertain potencies.

A short description of the test: Cell signaling CRE-BLA (Fsk stim). The following applies: CHO CRE-bla reporter (cAMP response element driving beta-lactamase), forskolin EC10, beta-lactamase ratio; measured here: 460 nm blue channel. Summed up: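 CHO CRE-bla cells, overnight plating in Opti-MEM with 0.5% dialyzed FBS; cpd titration + EC10 NKH 477, 3 h 37 °C; CCF4 2 h RT; ex 405/em 460 vs 530 ratio → %Activity, AC50.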
With `COC(=O)c1ccc(C)c(NS(=O)(=O)c2ccc(OC)cc2)c1`, the AC50 (as a rule, the midpoint of the concentration-response curve, whichever way the signal moves) was 0.316 µM [rising, full curve]. In the case of `O=CN1CC(=O)N(c2ccccc2)c2c([nH]c3ccccc23)C1`, the AC50 was 10 µM [rising, single point]. The same measure for `CN(C)c1ccc(C2(c3ccc(N(C)C)cc3)OC(=O)c3cc(N(C)C)ccc32)cc1`: 31.6 µM [rising, single point]; for `CCN(CC)C(=O)C1CCN(Cc2ccc(Br)cc2)CC1`: 3.98 µM [falling, single point]. With `CC1CCCCC12NC(=O)N(Cn1nnc3ccccc3c1=O)C2=O` (centres undefined), the AC50 is 1.58 µM [falling, partial curve]. Consider `COC(=O)c1c(C)cc(C)n2c1nc1ccccc12`, for which the AC50 is 12.6 µM [rising, single point]. The same measure for `COc1cc2c(C#N)c(N3CCN(c4ccccc4OC)CC3)nc(N)c2c(N)n1`: 10 µM [falling, partial curve]; for `O=C(c1cnc2sccn2c1=O)N(Cc1ccccc1)c1ccccn1`: 12.6 µM [rising, partial curve].

Turning to `CCn1c(CSc2nnc(-c3ccoc3C)n2C)nc2cc(S(=O)(=O)N(C)C)ccc21`, the AC50 is 5.01 µM [falling, partial curve]. As to `COc1ccc2c(=O)c3c(=O)n(Cc4ccco4)c(-c4ccc(C)cc4)nc3oc2c1`, the AC50 is 0.251 µM [rising, full curve]. For `COc1ccc(C2C3=C(CC(C)(C)CC3=O)Oc3ncn(CC(C)C)c(=N)c32)cc1` (centres undefined), the AC50 is 3.16 µM [rising, full curve, poor fit].

`CCOC(=O)CSc1nc2sc3c(c2c(=O)n1CC)CC(C)(C)OC3`: the half-maximal activity concentration (AC50) was 10 µM [rising, partial curve]. The same measure for `CN(C)Cc1ccccc1-c1ccc2ncnc(NC3CCNCC3)c2c1`: 0.631 µM [rising, full curve]; for `O=c1oc(-c2ccco2)nc2ccccc12`: 25.1 µM [rising, single point]. For `CC(C)(C(=O)O)c1ccc([C@@H](O)CCCN2CCC(C(O)(c3ccccc3)c3ccccc3)CC2)cc1`, the AC50 was 31.6 µM [falling, single point]. The same measure for `O=C(O)COc1ccc(Br)cc1/C=N/O`: 0.01 µM [falling, full curve]; for `Cc1cc2nc(N)sc2cc1C`: 1 µM [rising, full curve, poor fit]; for `COc1ccccc1C(=O)Nc1c2c(nn1-c1cccc(C)c1C)CS(=O)(=O)C2`: 1.26 µM [rising, full curve].

Take `N#Cc1c(N)nc2c(c1-c1ccncc1)CCCC2`: the AC50 is 25.1 µM [rising, single point].

In the case of `CCOC(=O)c1cc(CC)sc1NC(=O)Cc1ccsc1`, the AC50 is 2 µM [rising, single point]. For the compound `COc1ccc2[nH]c(=O)c3c(c2c1)OC(C)(C)C=C3`, the AC50 is 10 µM [falling, partial curve] and 5.01 µM [falling, partial curve]. Regarding `CCNc1ncc2nc(CCc3ccccc3)c(=O)n(CCC#N)c2n1`, the concentration at half-maximal activity (AC50) was 10 µM [rising, partial curve].

As to `CCC(Sc1nc2c(cnn2-c2ccc(Cl)cc2)c(=O)[nH]1)C(=O)OC` (centres undefined), the AC50 was 3.16 µM [rising, single point]. As for `COc1ccccc1-c1noc(-c2ccccc2C(=O)N2CCOCC2)n1`, the AC50 was 0.316 µM [falling, partial curve].

As to `Cn1c(=O)c(-c2ccc(Cl)cc2)nc2cnc(Oc3ccccc3)nc21`, the AC50 was 5.01 µM [rising, full curve].

For the compound `OCCNCCCOc1cccc(Cl)c1Cl`, the AC50 is 0.0398 µM [rising, full curve, poor fit]. `Cc1cc(C(F)(F)F)nc(SCc2ccc(C(=O)O)o2)n1`: the AC50 was 3.98 µM [rising, single point].

Take `CCOC(=O)N1CCN(C(=O)c2ccc3nc4ccsc4c(=O)n3c2)CC1`: the concentration at half-maximal activity (AC50) is 7.94 µM [rising, partial curve].

On to `O=C(NCc1ccco1)c1cc(-c2ccccc2)on1`, for which the concentration at half-maximal activity (AC50) is 5.01 µM [falling, full curve, poor fit].

`CCOC(=O)c1ccccc1NC(=O)c1cccs1`: the AC50 is 12.6 µM [rising, partial curve].

In the case of `O=C1C2C3C=CC(C3)C2C(=O)N1c1cccc2cccnc12` (centres undefined), the AC50 was 0.631 µM [rising, full curve]. For the compound `Cc1cc(C)n2nc(SCn3nnc4ccccc4c3=O)nc2n1`, the AC50 is 12.6 µM [rising, partial curve]. With `CCNc1ncc2nc(-c3ccc(Cl)cc3)c(=O)n(Cc3cccc(OC)c3)c2n1`, the AC50 was 0.126 µM [rising, full curve].

Take `COc1ccc(-n2nc(C(=O)NCc3ccco3)c3c4ccccc4n(C)c3c2=O)cc1`: the AC50 was 1.26 µM [rising, full curve]. As for `Cc1noc(C)c1-c1nc(NC2CC2)c2ccccc2n1`, the AC50 was 3.98 µM [rising, partial curve].

On to `c1ccc2[nH]c(NCCCN3CCOCC3)nc2c1`, for which the concentration at half-maximal activity (AC50) is 5.01 µM [falling, single point]. Consider `CCNc1ncc2nc(-c3cccc(C#N)c3)c(=O)n(C)c2n1`, for which the AC50 was 2 µM [rising, full curve].

For `Cc1ccc(-n2c(SCc3nnc4n3CCC4)nnc2-c2ccccc2)cc1`, the AC50 is 25.1 µM [rising, single point]. Take `Cc1cc(=O)c2cc(Cl)ccc2[nH]1`: the AC50 is 0.158 µM [falling, full curve]. For `CN(C)c1ccc(-c2nc(Nc3ccncc3)c3ccccc3n2)cc1`, the AC50 is 3.98 µM [rising, partial curve]. Take `COc1ccccc1C(O)P(=O)(OC(C)C)c1ccc(N(C)C)cc1` (centres undefined): the AC50 was 31.6 µM [falling, single point]. Take `O=C(CN1CCCCC1)Nc1ccc(S(=O)(=O)NC2CCCCC2)cc1`: the AC50 is 7.94 µM [rising, partial curve]. In the case of `CCOCCCNC(=O)c1ccc2c(c1)ncn2C1CCCC1`, the half-maximal activity concentration (AC50) was 2.51 µM [rising, single point].

As to `CC1=C(C(=O)Nc2ccccc2)C(c2ccco2)C(C#N)=C(SCC(=O)OC(C)C)N1` (centres undefined), the AC50 was 25.1 µM [falling, single point]. On to `COc1ccc2nc3c(cc2c1)Cc1ccccc1-3`, for which the AC50 was 25.1 µM [rising, single point].

`Nc1nc(CSc2nc3ccccc3[nH]2)nc(N2CCOCC2)n1`: the AC50 is 12.6 µM [rising, single point].

Regarding `Cc1cccc(S(=O)(=O)C(C#N)c2nc3ccccc3nc2N2CCOCC2)c1` (centres undefined), the half-maximal activity concentration (AC50) was 20 µM [rising, single point].

As to `CCOc1ccc2nc(NC(=O)Nc3cccs3)sc2c1`, the AC50 is 25.1 µM [falling, single point]. To `c1ccc(N=P(c2nc3ccccc3o2)(N2CCOCC2)N2CCOCC2)cc1` belongs 5.01 µM [falling, single point]; to `COC(=O)C(C)NC(=O)C12CC3CC(CC(C3)C1)C2` (centres undefined), 1.26 µM [falling, partial curve]. With `Cc1nc(-c2cccc(N)c2)cs1`, the AC50 is 12.6 µM [rising, single point]. On to `COc1ccc(Oc2ncc3nc(-c4ccccc4)c(=O)n(Cc4cccs4)c3n2)cc1`, for which the AC50 is 12.6 µM [rising, partial curve]. Regarding `Cc1cc(C(F)(F)F)nc(NCc2cccnc2)n1`, the AC50 was 10 µM [rising, single point]. Turning to `CCN1CCCC1CNC(=O)c1cc2c(=O)n(C)c3ccccc3c2n1C` (centres undefined), the AC50 is 6.31 µM [rising, partial curve].

For the compound `CC1=C(C(=O)Nc2ccccc2C)C(c2ccc(C)o2)C2=C(CCCC2=O)N1` (centres undefined), the AC50 was 10 µM [falling, single point]. The same measure for `COc1cc(C(=O)OCCCN2CCCN(CCCOC(=O)c3cc(OC)c(OC)c(OC)c3)CC2)cc(OC)c1OC`: 31.6 µM [rising, single point] and 10 µM [rising, partial curve, poor fit]; for `COCCn1c(C)cc(C(=O)CSc2nncn2-c2ccccc2)c1C`: 0.398 µM [falling, partial curve]; for `COc1ccc(C(=O)N2CCCCC2)cc1S(=O)(=O)Nc1ccccc1`: 3.16 µM [falling, partial curve, poor fit].

`COc1ccc(-n2c(=O)c(-c3cc(F)cc(F)c3)nc3cnc(N(C)C)nc32)cc1`: the AC50 was 3.16 µM [rising, partial curve].

Consider `COc1ccc(OC)c2[nH]c(=O)c(CCNC(C)=O)cc12`, for which the AC50 is 3.98 µM [falling, full curve].

Turning to `COc1ccc(CN2C(=O)c3cccnc3C2Nc2cc(Cl)c(OC)cc2OC)cc1` (centres undefined), the AC50 was 0.794 µM [rising, full curve].

With `COC(=O)c1ccc(CSc2ccc3nnc(-c4cccc(F)c4)n3n2)o1`, the AC50 is 3.98 µM [rising, partial curve]. To `O=C(CSc1nnc(-c2ccccc2)o1)c1nnc(-c2ccccc2)o1` belongs 5.01 µM [falling, single point]; to `O=C(O)c1ccc(SSc2ccc(C(=O)O)cn2)nc1`, 5.01 µM [rising, single point].

In the case of `O=C1c2oc3ccccc3c(=O)c2C(c2ccc(Br)cc2)N1c1ncccn1` (centres undefined), the AC50 is 3.16 µM [falling, partial curve]. Consider `O=C1Nc2ccccc2C12Nc1ccccc1S2` (centres undefined), for which the AC50 was 3.16 µM [falling, full curve, poor fit]. As for `Cc1cc(C)c2c(N)c(S(=O)(=O)c3ccccc3)sc2n1`, the AC50 was 7.94 µM [rising, partial curve].

Turning to `CCCn1c(C)nc2c(N3CCCN(Cc4ccccc4)CC3)nc(C)nc21`, the concentration at half-maximal activity (AC50) is 12.6 µM [rising, partial curve].

As for `Cc1sc2ncnc(SC(C)C#N)c2c1C` (centres undefined), the AC50 was 5.01 µM [rising, partial curve].
